Experimental data from paper PMC4914971.
These are yes or no findings as the source states them, for the method shown. Binding seen in cells or lysates may run through a third protein. Some entries that bind do so weakly or less than the wild type.

The chains behind the UniProt entries cited, without tags or fusion partners.
UniProt A6HD62: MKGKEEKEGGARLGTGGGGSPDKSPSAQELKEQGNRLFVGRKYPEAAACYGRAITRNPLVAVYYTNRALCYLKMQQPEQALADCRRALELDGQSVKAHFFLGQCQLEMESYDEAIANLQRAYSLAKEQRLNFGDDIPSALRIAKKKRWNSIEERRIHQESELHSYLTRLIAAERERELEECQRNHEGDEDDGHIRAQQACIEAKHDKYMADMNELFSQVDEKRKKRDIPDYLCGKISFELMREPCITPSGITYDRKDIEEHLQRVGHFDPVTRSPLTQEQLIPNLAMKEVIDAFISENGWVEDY
UniProt P81718: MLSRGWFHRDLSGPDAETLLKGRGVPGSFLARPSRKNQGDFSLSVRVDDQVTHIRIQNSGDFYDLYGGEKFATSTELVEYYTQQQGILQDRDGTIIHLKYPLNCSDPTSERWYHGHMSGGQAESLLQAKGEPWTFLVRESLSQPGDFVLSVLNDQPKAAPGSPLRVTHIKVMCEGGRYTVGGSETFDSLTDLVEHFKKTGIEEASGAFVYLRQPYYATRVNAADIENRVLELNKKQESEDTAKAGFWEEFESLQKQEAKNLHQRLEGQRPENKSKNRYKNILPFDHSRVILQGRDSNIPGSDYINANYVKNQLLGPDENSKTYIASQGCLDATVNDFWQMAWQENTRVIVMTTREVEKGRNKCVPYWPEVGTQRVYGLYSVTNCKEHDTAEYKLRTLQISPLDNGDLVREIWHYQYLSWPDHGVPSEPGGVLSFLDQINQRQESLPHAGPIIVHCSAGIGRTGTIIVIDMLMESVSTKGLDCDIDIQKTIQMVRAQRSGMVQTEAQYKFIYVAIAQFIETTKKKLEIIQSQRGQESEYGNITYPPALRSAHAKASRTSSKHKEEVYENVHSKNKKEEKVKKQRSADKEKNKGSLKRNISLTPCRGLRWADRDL

Target: Carboxyl terminus of Hsp70-interacting protein (rat (endogenous in H9c2)) (UniProt A6HD62)
Experiment: co-IP; H9c2 cell lysates immunoprecipitated with anti-CHIP or control IgG antibody for 2 h at 4 °C; beads washed; immunoblot with anti-SHP-1 and anti-CHIP antibodies

binding: binds
Substance: tyrosine phosphatase SHP-1 (from UniProt P81718 1-613)
